Experimental data taken from article PMC10216487.
Results are given in words; binding and its absence hold for the method and conditions named. In cells and extracts the contact can be indirect. Binding calls can cover weak binding; strength is not graded here.

Chains of the proteins cited; added tags and fusions are not shown. Lines headed by an entry give the natural chain unless they say otherwise; changes in a name come on top.
UniProt Q96RK0: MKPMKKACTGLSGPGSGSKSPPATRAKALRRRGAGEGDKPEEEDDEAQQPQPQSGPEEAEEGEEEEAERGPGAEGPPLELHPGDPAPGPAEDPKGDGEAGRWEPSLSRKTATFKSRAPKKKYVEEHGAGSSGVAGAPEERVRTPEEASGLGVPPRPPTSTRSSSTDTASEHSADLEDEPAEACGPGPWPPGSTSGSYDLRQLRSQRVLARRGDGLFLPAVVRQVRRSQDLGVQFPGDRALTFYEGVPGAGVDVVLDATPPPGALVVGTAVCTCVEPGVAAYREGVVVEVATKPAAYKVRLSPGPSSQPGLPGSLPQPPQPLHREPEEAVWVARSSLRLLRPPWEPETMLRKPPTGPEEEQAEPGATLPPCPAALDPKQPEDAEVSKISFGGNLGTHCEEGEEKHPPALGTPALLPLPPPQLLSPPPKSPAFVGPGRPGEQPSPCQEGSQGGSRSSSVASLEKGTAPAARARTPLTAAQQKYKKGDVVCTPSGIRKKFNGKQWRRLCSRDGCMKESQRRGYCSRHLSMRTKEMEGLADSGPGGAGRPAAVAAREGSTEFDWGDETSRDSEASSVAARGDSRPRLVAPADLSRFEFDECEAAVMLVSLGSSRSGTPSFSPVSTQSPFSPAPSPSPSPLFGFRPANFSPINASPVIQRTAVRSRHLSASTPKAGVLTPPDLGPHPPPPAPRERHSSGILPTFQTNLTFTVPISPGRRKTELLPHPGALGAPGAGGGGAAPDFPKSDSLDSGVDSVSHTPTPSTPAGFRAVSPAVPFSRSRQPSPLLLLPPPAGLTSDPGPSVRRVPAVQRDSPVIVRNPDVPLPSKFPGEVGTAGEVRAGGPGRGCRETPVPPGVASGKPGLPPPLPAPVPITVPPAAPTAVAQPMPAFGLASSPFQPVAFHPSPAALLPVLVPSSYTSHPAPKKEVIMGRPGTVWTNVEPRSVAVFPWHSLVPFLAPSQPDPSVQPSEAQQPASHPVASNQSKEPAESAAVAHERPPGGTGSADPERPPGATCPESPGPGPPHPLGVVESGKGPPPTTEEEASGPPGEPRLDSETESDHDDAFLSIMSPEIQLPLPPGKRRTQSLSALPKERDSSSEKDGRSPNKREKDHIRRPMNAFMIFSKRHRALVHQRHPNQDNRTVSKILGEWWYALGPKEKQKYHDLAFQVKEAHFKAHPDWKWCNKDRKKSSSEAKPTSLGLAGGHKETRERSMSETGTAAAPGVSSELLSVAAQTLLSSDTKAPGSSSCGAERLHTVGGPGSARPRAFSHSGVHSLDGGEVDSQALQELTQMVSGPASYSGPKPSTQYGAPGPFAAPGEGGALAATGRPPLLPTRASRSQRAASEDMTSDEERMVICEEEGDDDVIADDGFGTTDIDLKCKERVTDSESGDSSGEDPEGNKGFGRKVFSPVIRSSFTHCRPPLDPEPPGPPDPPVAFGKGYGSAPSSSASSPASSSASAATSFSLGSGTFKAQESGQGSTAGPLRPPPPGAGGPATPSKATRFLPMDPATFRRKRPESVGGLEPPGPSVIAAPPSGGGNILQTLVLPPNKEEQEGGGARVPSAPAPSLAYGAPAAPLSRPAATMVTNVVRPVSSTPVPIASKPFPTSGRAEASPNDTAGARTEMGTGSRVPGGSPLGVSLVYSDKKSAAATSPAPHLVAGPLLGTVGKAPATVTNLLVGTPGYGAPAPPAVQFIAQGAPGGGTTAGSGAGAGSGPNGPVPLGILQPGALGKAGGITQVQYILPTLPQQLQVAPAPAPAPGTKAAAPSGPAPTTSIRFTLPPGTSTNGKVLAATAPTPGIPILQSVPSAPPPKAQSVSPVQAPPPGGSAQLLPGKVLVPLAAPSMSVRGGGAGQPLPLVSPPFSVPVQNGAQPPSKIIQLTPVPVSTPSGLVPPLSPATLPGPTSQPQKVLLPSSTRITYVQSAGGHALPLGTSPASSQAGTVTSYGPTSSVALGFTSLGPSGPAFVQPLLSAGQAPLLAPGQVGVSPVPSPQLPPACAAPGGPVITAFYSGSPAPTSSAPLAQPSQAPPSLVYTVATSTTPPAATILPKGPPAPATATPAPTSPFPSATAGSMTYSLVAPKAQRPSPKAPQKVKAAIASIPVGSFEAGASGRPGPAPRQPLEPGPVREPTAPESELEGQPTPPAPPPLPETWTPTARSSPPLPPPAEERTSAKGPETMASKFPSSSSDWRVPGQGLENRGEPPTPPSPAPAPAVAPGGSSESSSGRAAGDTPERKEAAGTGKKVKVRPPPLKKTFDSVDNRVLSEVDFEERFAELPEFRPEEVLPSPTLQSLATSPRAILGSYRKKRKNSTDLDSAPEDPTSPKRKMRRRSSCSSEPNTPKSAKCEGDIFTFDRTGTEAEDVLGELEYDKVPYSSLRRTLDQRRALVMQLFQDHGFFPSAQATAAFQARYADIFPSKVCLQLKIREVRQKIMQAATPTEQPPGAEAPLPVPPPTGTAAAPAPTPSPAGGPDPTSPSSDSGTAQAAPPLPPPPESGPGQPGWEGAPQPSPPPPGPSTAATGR
UniProt P51531: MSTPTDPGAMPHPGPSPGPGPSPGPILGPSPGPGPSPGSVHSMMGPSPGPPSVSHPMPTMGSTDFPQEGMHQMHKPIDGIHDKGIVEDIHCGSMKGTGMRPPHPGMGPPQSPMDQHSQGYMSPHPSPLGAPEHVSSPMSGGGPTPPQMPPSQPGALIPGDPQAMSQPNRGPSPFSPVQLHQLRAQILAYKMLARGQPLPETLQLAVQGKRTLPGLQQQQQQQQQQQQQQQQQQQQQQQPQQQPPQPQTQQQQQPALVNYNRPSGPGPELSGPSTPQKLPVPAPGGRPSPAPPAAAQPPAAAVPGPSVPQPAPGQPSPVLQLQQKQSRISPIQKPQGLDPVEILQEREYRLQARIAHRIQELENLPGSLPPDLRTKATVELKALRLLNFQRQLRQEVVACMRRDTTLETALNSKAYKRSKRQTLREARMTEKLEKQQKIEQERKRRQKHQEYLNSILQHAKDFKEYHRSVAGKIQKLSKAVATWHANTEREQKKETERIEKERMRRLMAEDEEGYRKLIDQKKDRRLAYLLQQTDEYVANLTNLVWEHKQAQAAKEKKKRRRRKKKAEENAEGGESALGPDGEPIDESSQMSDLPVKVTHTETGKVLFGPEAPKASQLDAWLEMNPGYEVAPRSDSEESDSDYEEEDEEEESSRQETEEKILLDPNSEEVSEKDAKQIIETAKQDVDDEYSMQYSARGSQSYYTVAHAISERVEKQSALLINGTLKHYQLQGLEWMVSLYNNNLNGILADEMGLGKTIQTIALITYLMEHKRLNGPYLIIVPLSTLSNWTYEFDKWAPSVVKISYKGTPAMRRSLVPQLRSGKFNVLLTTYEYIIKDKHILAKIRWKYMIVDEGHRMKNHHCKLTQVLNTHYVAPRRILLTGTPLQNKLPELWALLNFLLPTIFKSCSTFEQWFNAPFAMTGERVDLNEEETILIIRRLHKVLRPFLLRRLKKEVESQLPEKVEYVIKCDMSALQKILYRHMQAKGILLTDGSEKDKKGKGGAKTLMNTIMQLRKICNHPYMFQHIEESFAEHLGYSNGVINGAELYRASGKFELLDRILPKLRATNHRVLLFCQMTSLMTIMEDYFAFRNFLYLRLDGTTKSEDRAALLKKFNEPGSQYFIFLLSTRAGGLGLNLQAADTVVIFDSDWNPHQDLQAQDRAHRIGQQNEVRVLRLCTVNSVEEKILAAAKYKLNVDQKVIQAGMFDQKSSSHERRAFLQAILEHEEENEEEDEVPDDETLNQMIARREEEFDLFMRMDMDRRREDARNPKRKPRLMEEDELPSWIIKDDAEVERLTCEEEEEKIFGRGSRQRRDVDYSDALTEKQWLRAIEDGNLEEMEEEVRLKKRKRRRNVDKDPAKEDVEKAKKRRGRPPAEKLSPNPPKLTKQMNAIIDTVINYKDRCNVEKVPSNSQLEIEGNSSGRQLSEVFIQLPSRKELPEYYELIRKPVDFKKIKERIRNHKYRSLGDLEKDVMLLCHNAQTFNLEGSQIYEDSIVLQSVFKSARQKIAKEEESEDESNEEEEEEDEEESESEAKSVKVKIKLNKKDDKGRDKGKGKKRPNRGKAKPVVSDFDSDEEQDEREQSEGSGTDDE
UniProt Q92922: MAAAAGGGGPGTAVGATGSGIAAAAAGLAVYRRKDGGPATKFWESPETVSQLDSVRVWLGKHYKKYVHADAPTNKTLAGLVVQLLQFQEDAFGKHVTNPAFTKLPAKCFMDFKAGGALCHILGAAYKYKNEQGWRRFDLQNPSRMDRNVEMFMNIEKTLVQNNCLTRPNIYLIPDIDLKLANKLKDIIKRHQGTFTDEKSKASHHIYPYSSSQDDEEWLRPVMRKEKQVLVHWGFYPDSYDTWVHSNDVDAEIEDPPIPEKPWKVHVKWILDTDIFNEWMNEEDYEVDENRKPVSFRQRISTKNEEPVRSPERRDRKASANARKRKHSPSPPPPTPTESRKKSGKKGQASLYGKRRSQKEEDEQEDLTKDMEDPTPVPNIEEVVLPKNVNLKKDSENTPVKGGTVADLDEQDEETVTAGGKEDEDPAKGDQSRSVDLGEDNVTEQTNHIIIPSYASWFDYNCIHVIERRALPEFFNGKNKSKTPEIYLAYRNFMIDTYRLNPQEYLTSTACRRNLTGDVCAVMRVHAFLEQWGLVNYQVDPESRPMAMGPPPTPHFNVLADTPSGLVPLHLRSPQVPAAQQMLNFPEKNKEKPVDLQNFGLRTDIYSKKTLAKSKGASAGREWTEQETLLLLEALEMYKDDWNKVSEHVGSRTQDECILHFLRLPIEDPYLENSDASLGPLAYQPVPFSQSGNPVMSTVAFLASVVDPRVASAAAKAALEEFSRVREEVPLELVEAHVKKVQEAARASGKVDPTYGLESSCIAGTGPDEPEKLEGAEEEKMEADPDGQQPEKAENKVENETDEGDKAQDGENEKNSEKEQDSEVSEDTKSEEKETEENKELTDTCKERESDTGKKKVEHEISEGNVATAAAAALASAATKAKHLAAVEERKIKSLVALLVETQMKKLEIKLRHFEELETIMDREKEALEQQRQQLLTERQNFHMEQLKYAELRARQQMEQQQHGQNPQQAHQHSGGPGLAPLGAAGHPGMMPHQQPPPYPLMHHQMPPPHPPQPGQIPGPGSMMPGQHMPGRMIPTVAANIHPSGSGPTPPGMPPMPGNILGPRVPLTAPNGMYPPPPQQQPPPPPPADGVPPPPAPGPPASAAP

Molecular target: N-terminal FLAG-CIC-short form (FLAG-CIC-S) (UniProt Q96RK0)
Experiment: proximity ligation; antibodies against FLAG and ARID1A, SMARCA2, SMARCC1 or ARID2 in HEK-CIC^KO-D10 cells expressing F-CIC-S, empty vector cells as control; PLA spots per nuclear region, interphase (<40 nm)

Substance: SMARCA2 (from UniProt P51531 1-1590)
- binding: binds

Substance: SMARCC1 (from UniProt Q92922 1-1105)
- binding: binds
